PubChem BioAssay AID1508597, Cure First, 2020
This is a random part of the about 2,100 reagents, in one setting of the screen. 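Calls flag viability under 80% in either arm, not effects specific to rucaparib; the reference for percent is not stated.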 A reagent listed more than once was tested more than once; the source does not tell the runs apart. The record does not give: the 100% reference.

Test: 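Genes whose silencing sensitises or protects ovarian cancer cells against rucaparib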 (primary screen)
Cells: human ovarian carcinoma lines grown from tumours: OCI-P5x (papillary serous) and OCI-C5x (clear cell)
Reagent: siRNA pool against human genes, 1.25 pmol siRNA per well
Timing: 72 h or 96 h, depending on the cell culture
Challenge: rucaparib 20 µM (about IC30) or vehicle, present until read-out
Rucaparib or vehicle: Rucaparib
Cell line: OCI-C5x (clear cell)
Detection: 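ATP luminescence measured at 72 or 96 h according to the culture, then normalised and expressed as percent viability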
Scale: viability, normalised: higher = more viable cells remaining
Call rule: 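Active when normalised viability falls below 80 percent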
Meaning of the calls: active = viability under 80%; inactive = viability 80% or more

The first 6 records, ahead of the listing:
gene | PubChem SID | technical replicate | viability, normalised (%) | activity call
SMC1A (GeneID 8243) | SID405527338 | 1 | 32.9 | active
SMC1A (GeneID 8243) | SID405527338 | 1 | 49.2 | active
SMC1A (GeneID 8243) | SID405527338 | 2 | 30.8 | active
SMC1A (GeneID 8243) | SID405527338 | 2 | 80.6 | inactive
SMC1A (GeneID 8243) | SID405527338 | 3 | 94.4 | inactive
SMC1A (GeneID 8243) | SID405527338 | 3 | 28 | active

The list itself, from the start:
gene | PubChem SID | technical replicate | viability, normalised (%) | activity call
SMC1A (GeneID 8243) | SID405527338 | 1 | 32.9 | active
SMC1A (GeneID 8243) | SID405527338 | 1 | 49.2 | active
SMC1A (GeneID 8243) | SID405527338 | 2 | 30.8 | active
SMC1A (GeneID 8243) | SID405527338 | 2 | 80.6 | inactive
SMC1A (GeneID 8243) | SID405527338 | 3 | 94.4 | inactive
SMC1A (GeneID 8243) | SID405527338 | 3 | 28 | active
GAK (GeneID 2580) | SID405527645 | 1 | 29.5 | active
GAK (GeneID 2580) | SID405527645 | 2 | 35.5 | active
GAK (GeneID 2580) | SID405527645 | 3 | 48.5 | active
PASK (GeneID 23178) | SID405528540 | 1 | 39.8 | active
PASK (GeneID 23178) | SID405528540 | 2 | 49.9 | active
PASK (GeneID 23178) | SID405528540 | 3 | 43 | active
NEIL3 (GeneID 55247) | SID405528430 | 1 | 42.2 | active
NEIL3 (GeneID 55247) | SID405528430 | 2 | 41.6 | active
NEIL3 (GeneID 55247) | SID405528430 | 3 | 41.5 | active
HUNK (GeneID 30811) | SID405527817 | 1 | 67.4 | active
HUNK (GeneID 30811) | SID405527817 | 2 | 48.2 | active
HUNK (GeneID 30811) | SID405527817 | 3 | 31.4 | active
PCDHB16 (GeneID 57717) | SID405527123 | 1 | 46.7 | active
PCDHB16 (GeneID 57717) | SID405527123 | 2 | 42.5 | active
PCDHB16 (GeneID 57717) | SID405527123 | 3 | 33.9 | active
SMCHD1 (GeneID 23347) | SID405527343 | 1 | 46.8 | active
SMCHD1 (GeneID 23347) | SID405527343 | 2 | 71.6 | active
SMCHD1 (GeneID 23347) | SID405527343 | 3 | 55.9 | active
PRMT9 (GeneID 90826) | SID405527200 | 1 | 53.9 | active
PRMT9 (GeneID 90826) | SID405527200 | 2 | 46.7 | active
PRMT9 (GeneID 90826) | SID405527200 | 3 | 44.2 | active
MET (GeneID 4233) | SID405527468 | 1 | 50.4 | active
MET (GeneID 4233) | SID405527468 | 2 | 47 | active
MET (GeneID 4233) | SID405527468 | 3 | 46.2 | active
TNRC6A (GeneID 27327) | SID405526574 | 1 | 70.4 | active
TNRC6A (GeneID 27327) | SID405526574 | 2 | 76.7 | active
TNRC6A (GeneID 27327) | SID405526574 | 3 | 71.1 | active
SMARCB1 (GeneID 6598) | SID405527331 | 1 | 47.4 | active
SMARCB1 (GeneID 6598) | SID405527331 | 2 | 48.4 | active
SMARCB1 (GeneID 6598) | SID405527331 | 3 | 56.8 | active
ATOH1 (GeneID 474) | SID405528001 | 1 | 37 | active
ATOH1 (GeneID 474) | SID405528001 | 2 | 48.6 | active
ATOH1 (GeneID 474) | SID405528001 | 3 | 55.5 | active
TBL1Y (GeneID 90665) | SID405526536 | 1 | 48.3 | active
TBL1Y (GeneID 90665) | SID405526536 | 2 | 59.6 | active
TBL1Y (GeneID 90665) | SID405526536 | 3 | 48 | active
DDX55 (GeneID 57696) | SID405528200 | 1 | 52.1 | active
DDX55 (GeneID 57696) | SID405528200 | 2 | 57.6 | active
DDX55 (GeneID 57696) | SID405528200 | 3 | 41.1 | active
MAP4K3 (GeneID 8491) | SID405527486 | 1 | 58.5 | active
MAP4K3 (GeneID 8491) | SID405527486 | 2 | 77.5 | active
MAP4K3 (GeneID 8491) | SID405527486 | 3 | 64.7 | active
RAD23A (GeneID 5886) | SID405528390 | 1 | 40.4 | active
RAD23A (GeneID 5886) | SID405528390 | 2 | 48.3 | active
RAD23A (GeneID 5886) | SID405528390 | 3 | 29.1 | active
DDX10 (GeneID 1662) | SID405528170 | 1 | 55.3 | active
DDX10 (GeneID 1662) | SID405528170 | 2 | 54.2 | active
DDX10 (GeneID 1662) | SID405528170 | 3 | 40.1 | active
MTRFR (GeneID 91574) | SID405528055 | 1 | 70.6 | active
MTRFR (GeneID 91574) | SID405528055 | 2 | 65.9 | active
MTRFR (GeneID 91574) | SID405528055 | 3 | 36.4 | active
